According to article PMC8917221:
Results are given in words; binding and its absence hold for the method and conditions named. Binding seen in cells or lysates may run through a third protein. A yes stands for co-enrichment or nearness to the bait. Other partners may have been found. For part of these data: No binding means not detected with the bait.

Experiments:
[1] = biological target: Bmc1 PrA (S. pombe Bin3/MePCE homolog Bmc1, protein A-tagged at the genomic locus) (S. pombe); test: affinity purification with mass spectrometry; Bmc1 PrA immunoprecipitated from S. pombe native protein extract on rabbit IgG Dynabeads; eluted with 0.5 M NH4OH, tryptic digest, LC-MS/MS; untagged control
[2] = biological target: Bmc1 PrA (S. pombe Bin3/MePCE homolog Bmc1, protein A-tagged at the genomic locus) (S. pombe); test: affinity purification with mass spectrometry; as a1, but the native protein extract pre-treated with 0.625 U/μL benzonase at 37 °C for 30 min

B1: Pof8 (LARP7 family member), endogenous, found by mass spectrometry (protein, UniProt O13795 1-402)
chain: MFVPRQLNVRKIKAFTGKENNSIADGNNNKLKDEHYKHNEASKEPSHSISGGLMLNQQDRQLIEPLNPDFLSAVDSILEIYFHRERQKEKVHLAFLIQQDDFWKGIRPNPTQNNLKYALSYVTNALFHFDNSSHMVIRNENIVLPLDIPLYDRIIYVEPVPATLSNKSLLLAGKLRKYLKEFLPYVDAIGTPEGYAFVILYKKVDQSALSKLPVPPGWVLLTRKEWTNREEKYFENQLHLVKASSSDVSNSSNSFPENRYPKLTKVEKQMTKSVSKTSQTDKDEDNLDFTKNLLTRIKNLHPLTNKSTIHSLLSYVFSRQTQNIACEPMYIDYRKDETEAIIRWKTPLHAETCINAFRTQERKQNSHDDIRAHRKKGSSRPFLIAELITGEEEKNYWRMLKK
binding [1]: binds
binding [2]: binds

B2: Tgs1 (TMG capping enzyme) (enzyme, UniProt Q09814 1-239)
chain: MNKNEELDEDELLKKCIICPPVPKALKKYWNNRYNLFSRFDEGIWLDYQSWYSVTPEKVAVAIAKSVVDFIQPELIIDAFSGCGGNTIQFAKYCPVISIEIDPIKIAMAKHNLEIYGIPSSRVTFIQGDVLDTFKSLQFAKDYRSLVFMSPPWGGPSYSGKTVYSLNDLNPYAFDVLFKEATRISPYVAAFLPRNTDVKELAAYGSIHNKPYITNFLFEGYAKAICCYFNMKGAIARKI
binding [1]: no binding
